# Results from PubChem BioAssay AID504834 (National Center for Advancing Translational Sciences (NCATS), 2011).
# “And” between values parts separate entries of the source, which are not always exact repeats. Equal entries are not always repeated. The campaign covered roughly 320,000 compounds. About 22,000 (6.9%) were called active. This list was built around the results that the source calls inconclusive (neither active nor inactive); the mix of calls is not that of the screen. Calls come from the whole dose curve; as a rule, active = well fitted inhibition curve with a large enough effect; inconclusive = small, poorly fitted or top-dose-only effect, or another doubt; inactive = no such curve, though single readings can be large or run the other way. Where the call is inconclusive, the potency comes from a doubtful curve fit.
# Assay: Primary qHTS for delayed death inhibitors of the malarial parasite plastid, 96 hour incubation
# Settings: P. falciparum luciferase reporter growth; series mostly up to 28.7 µM; activity change, negative = inhibition: at the top concentration
# Procedure, shortened: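 Two-generation exposure (96 h) targets delayed-death phenotype. Reporter parasites carrying integrated firefly luciferase, in red cells at 2% hematocrit and 0.05% parasitemia final, kept at 37 C, 5% CO2; luminescence loss indicates inhibition.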
# % is set by controls: 0 for no effect and ±100 for the full control effect; potency is the fitted concentration of half-maximal effect.
SMILES,Potency,"activity change, negative = inhibition"
COc1ccc(CCNC(=O)c2cc(C(=O)c3cc(C)ccc3O)cn(CCc3ccc(OC)cc3)c2=O)cc1,active: 3.29 µM,–
CCCc1noc(-c2cccc([N+](=O)[O-])c2)n1,–,inactive: -36.3%
CCCCCCCCCC[N+](C)(C)CC/C=C1/c2ccccc2Sc2ccc(Cl)cc21,active: 3.7 µM,–
O=c1[nH]c(=O)n(-c2cccc3ccccc23)c(O)c1/C=N/N1CCCCC1c1cccnc1 (centres undefined),"inconclusive: 9.28 µM [inhibitor, single point]",–
COc1ccc(-n2nc(C(=O)N3CCN(c4ccc(F)cc4)CC3)c3ccccc3c2=O)c(OC)c1,"inconclusive: 7.38 µM [inhibitor, partial curve]",–
CS(=O)(=O)N1CCCC(C(=O)NCCCN2CCOCC2)C1 (centres undefined),"inconclusive: 4.15 µM [inhibitor, single point]",–
O=C(CSc1n[nH]c(-c2ccccc2)n1)Nc1ncccn1,–,inactive: -38.1% [at 1.15 µM]
Cc1cccc(OCC(O)Cn2c(=N)n(CCN3CCCCC3)c3ccccc32)c1 (centres undefined),active: 2.62 µM,–
CCc1ccc(-c2cc(C(=O)NCc3ccccn3)c3ccccc3n2)cc1,"inconclusive: 11.7 µM [inhibitor, single point]",–
CCN(CC)CCCNC(=O)CSc1nc(-c2cccs2)cc(C(F)(F)F)n1,"inconclusive: 11.7 µM [inhibitor, single point]",–
CCCSc1nc2[nH]ncc2c(=O)[nH]1,"inconclusive: 18.5 µM [inhibitor, partial curve, poor fit]",–
CCC1CCc2sc(C(=O)NCC(c3ccc(OC)cc3)N3CCCC3)cc2C1 (centres undefined),"inconclusive: 10.4 µM [inhibitor, single point]",–
O=C(O)C/C=C(\NC(=O)OCc1ccccc1)C(=O)OCc1ccccc1,–,inactive: 1.72%
COc1ccc(OC)c(C(O)c2coc3ccc(O)c(CN4CCOCC4)c23)c1 (centres undefined),–,inactive: 17.3%
Cc1c(Cl)cccc1NC(=O)CCN1CCN(C)CC1,"inconclusive: 9.28 µM [inhibitor, single point]",–
Cc1ccc(OCCCCNC(C)c2ccccc2)c(C)c1 (centres undefined),"inconclusive: 18.5 µM [inhibitor, single point]",–
Cc1cc(CSc2ccccc2)ccc1NC(=O)c1cccc([N+](=O)[O-])c1,"inconclusive: 2.08 µM [inhibitor, partial curve, poor fit]",–
Cc1ccc2c(c1)-c1[nH]c(=S)ncc1CS2,–,inactive: 76.2%
Cc1csc2c(=O)sc(NC(=O)c3ccco3)nc12,–,inactive: 41.4%
Cc1ccc(-c2nc(C#N)c(NCCCn3ccnc3)o2)cc1,–,inactive: 237%
COC(=O)c1ccc(Cl)c(NC(=O)CN2CCC(C)CC2)c1,–,inactive: -10.1%
Cc1cccc2cc(CN(CCN3CCCC3)C(=O)NC3CCCCC3)c(=O)[nH]c12,"inconclusive: 18.5 µM [inhibitor, single point]",–
O=C(CC(=O)Nc1nc(C23CC4CC(CC(C4)C2)C3)cs1)NCCO,active: 9.28 µM,–
CC12CCC(C(=O)NC(c3ccccc3)c3ccccc3)(OC1=O)C2(C)C (centres undefined),active: 13.1 µM,–
COc1ccccc1N=c1oc2c(OC)cccc2cc1C(=O)NCc1ccco1,"inconclusive: 1.47 µM [inhibitor, full curve]",–

# 3 entries from above, with bars between the fields.
SMILES | Potency | activity change, negative = inhibition
COc1ccc(OC)c(C(O)c2coc3ccc(O)c(CN4CCOCC4)c23)c1 (centres undefined) | – | inactive: 17.3%
Cc1c(Cl)cccc1NC(=O)CCN1CCN(C)CC1 | inconclusive: 9.28 µM [inhibitor, single point] | –
Cc1cccc2cc(CN(CCN3CCCC3)C(=O)NC3CCCCC3)c(=O)[nH]c12 | inconclusive: 18.5 µM [inhibitor, single point] | –

# Whole records, quoted from the list. Values in the order: Potency	activity change, negative = inhibition
# Cc1cccc(OCC(O)Cn2c(=N)n(CCN3CCCCC3)c3ccccc32)c1 (centres undefined) in the list: active: 2.62 µM	–
# CCCCCCCCCC[N+](C)(C)CC/C=C1/c2ccccc2Sc2ccc(Cl)cc21 in the list: active: 3.7 µM	–

# The list goes on.

SMILES,Potency,"activity change, negative = inhibition"
O=C(Nc1ccc2c(c1)OCO2)N1CCCc2ccccc21,–,inactive: 92.7%
O=[N+]([O-])c1ccc(COc2ccc(-c3[nH]ncc3-c3ccc(Cl)cc3)c(O)c2)cc1,"inconclusive: 11.7 µM [inhibitor, single point]",–
COc1cc(C(=O)NC(=S)Nc2ccc3[nH]c(=O)[nH]c3c2)cc(OC)c1OC,–,inactive: 89.6%
COc1ccc(CC(=O)NNC(=O)c2ccccn2)cc1,"inconclusive: 1.04 µM [inhibitor, partial curve, poor fit]",–
CC(C)c1ccccc1NC(=S)NCC1(N(C)C)CCCCC1,"inconclusive: 18.5 µM [inhibitor, single point]",–
CCOC(=O)n1c(=O)n(Cc2ccc(Cl)c(Cl)c2)c2ccccc21,"inconclusive: 11.7 µM [inhibitor, partial curve, poor fit]",–
Cc1cc(NS(=O)(=O)c2ccc(NC(=O)C(F)(F)F)cc2)nc(C)n1,–,inactive: 57.6%
CN(C)S(=O)(=O)c1ccc(N2CCCC2)c(C(=O)NNC(=O)c2ccc(F)cc2)c1,–,inactive: -29.3%
Cc1cc(C)nc(SCc2csc(N)n2)n1,–,inactive: -61.3%
C/C(=N/NS(=O)(=O)c1cc(C)ccc1C)c1ccncc1,active: 11.7 µM,–
Cc1cccc(C)c1NC(=O)CSc1nc2[nH]c(=O)cc(O)c2s1,"inconclusive: 11.7 µM [inhibitor, single point]",–
Cc1c(S(=O)(=O)Nc2cccc(Cl)c2)c(=O)n(C)c(=O)n1C,–,inactive: 15%
Cc1ccc(C)c(NC(=S)c2ccccn2)c1,active: 1.04 µM,–
COc1ccc(CCNC(=O)c2nnn(CC(=O)Nc3ccc(C)cc3C)c2N)cc1OC,"inconclusive: 10.4 µM [inhibitor, partial curve]",–
CCCC#Cc1ccc2c(c1)COc1c3ccccc3nn1-2,–,inactive: 145%
COc1ccc(NC(=O)C(C)(C)Oc2ccc(Cl)cc2)cn1,–,inactive: 6.72%
CC(NC(=O)COc1cccnc1[N+](=O)[O-])c1ccc(Cl)cc1 (centres undefined),–,inactive: 9.02%
Cc1nc(NC2=NCN(Cc3ccco3)CN2)nc2ccccc12,active: 1.85 µM,–
CCOC(=O)N1CCN=C1SCc1ccc(Cl)c(Cl)c1,"inconclusive: 14.7 µM [inhibitor, single point]",–
CC(=O)c1cccc(NC(=O)C2CCN(S(=O)(=O)c3c(C)n[nH]c3C)CC2)c1,–,inactive: -29.8%
COc1cccc(NC(=S)NCCCN2CCOCC2)c1,–,inactive: 19.1%
C=C[C@]1(C)C[C@@H](OC(=O)CSCCN(CC)CC)[C@]2(C)C(C)CC[C@]3(CCC(=O)[C@H]32)[C@@H](C)[C@@H]1O (some centres undefined),active: 1.35 µM and active: 2.94 µM and active: 2.08 µM,–
COc1ccccc1N1CC(C(=O)Nc2ccc(S(=O)(=O)N3CCOCC3)cc2)CC1=O (centres undefined),"inconclusive: 9.28 µM [inhibitor, single point]",–
CCC(C)NC(=O)c1ccccc1NC(=O)CN(c1cc(C)ccc1OC)S(C)(=O)=O (centres undefined),"inconclusive: 11.7 µM [inhibitor, single point]",–
Cc1cccc(-n2c(SCC(=O)NCc3ccc4c(c3)OCO4)nc3ccccc3c2=O)c1,"inconclusive: 10.4 µM [inhibitor, partial curve, poor fit]",–

SMILES,Potency,"activity change, negative = inhibition"
O=C(/C=C/c1ccco1)N(Cc1ccc(Cl)cc1)C1CCS(=O)(=O)C1 (centres undefined),"inconclusive: 9.28 µM [inhibitor, partial curve, poor fit]",–
CC1=NN(C(=O)c2csc(C)c2)C(O)(C(F)(F)F)C1 (centres undefined),–,inactive: 3.44% [at 5.75 µM]
CSc1ccc(CN(C)C(=O)C(c2ccccc2)c2ccccc2)cc1,"inconclusive: 10.4 µM [inhibitor, single point]",–
Cc1ccc(N2CC(C(=O)Nc3ccc(S(=O)(=O)Nc4nccs4)cc3)CC2=O)cc1 (centres undefined),"inconclusive: 0.262 µM [inhibitor, full curve, poor fit]",–
CCCCn1c2c(c(=O)n(C)c1=O)C(CC(=O)OCC(=O)Nc1cccc(C(F)(F)F)c1)C(=O)N2 (centres undefined),"inconclusive: 18.5 µM [inhibitor, single point]",–
CCOc1ccc(NC(=O)c2ccc(N3CC4CC(C3)c3cccc(=O)n3C4)c(NC(=O)c3ccncc3)c2)cc1 (centres undefined),–,inactive: 32.8%
O=C(Cn1cnc2ccccc21)c1ccc(Cl)cc1,–,inactive: 83.2%
O=S(=O)(CCSc1ccccn1)c1nc2ccccc2s1,active: 1.65 µM,–
Cc1ccc(Nc2nc(CSc3nnc(-c4ccc(F)cc4)n3C)cs2)cc1,–,inactive: 27.9%
COc1ccccc1OCCCOc1c(Cl)cc(C)cc1Cl,–,inactive: -16.6%
Cc1ccc(-c2cc(C(=O)N/N=C/c3ccc(Cl)cc3)n[nH]2)o1,"inconclusive: 13.1 µM [inhibitor, single point]",–
CC1CCCN(C(=O)C2CCN(CC3CC=CCC3)CC2)C1 (centres undefined),–,inactive: -23.1%
CCCn1c(C)cs/c1=N\C(=S)Nc1ccccc1,–,inactive: -7.62%
O=C(CN1C(=O)C2CCCCC2C1=O)Nc1cc(C(F)(F)F)ccc1N1CCCC1 (centres undefined),–,inactive: 40%
CCOC(=O)[C@H](CCc1ccccc1)N[C@@H](C)C(=O)N1CCC[C@@H]1C(=O)O,–,inactive: 0.186%
CCc1c(O)nc(SCC(=O)N2CCc3cc(OC)c(OC)cc3[C@@H]2C)[nH]c1=O,"inconclusive: 5.22 µM [inhibitor, partial curve, poor fit]",–
O=C(Nc1ccc(F)cc1)c1ccccc1S(=O)(=O)c1ccccc1[N+](=O)[O-],"inconclusive: 18.5 µM [inhibitor, single point]",–
O=C(CN(C(=O)CNC(=O)c1cccs1)c1cccc(F)c1)NC1CCCC1,"inconclusive: 3.7 µM [inhibitor, full curve, poor fit]",–
O=C1N(c2ccccc2)c2ccccc2C1(Cc1ccncc1)Cc1ccncc1,"inconclusive: 9.53 µM [inhibitor, partial curve]",–
Cc1ccsc1CN(C)CC(=O)Nc1cccc(S(=O)(=O)N(C)c2ccccc2)c1,"inconclusive: 11.7 µM [inhibitor, single point]",–
CCc1ccc2nc(SCC(=O)Nc3ccccc3N3CCOCC3)c(C#N)cc2c1,–,inactive: -53.6%
O=C(Nc1ccc2oc(=O)ccc2c1)c1cccnc1Cl,"inconclusive: 6.57 µM [inhibitor, partial curve]",–
Cc1cc(C)cc(CSCC(=O)N/N=C/c2ccc(OCC(=O)NCc3ccco3)cc2)c1,"inconclusive: 5.22 µM [inhibitor, partial curve, poor fit]",–
Cc1ccc(C)c(N(CC(=O)NC2CCCC2)S(=O)(=O)c2ccccc2)c1,active: 13.1 µM,–
